Experimental data as given in publication doi:10.1101/2025.10.16.682884.

T1: endogenously tagged wrmScarlet::ALLO-1 fusion protein (C. elegans (endogenous in young adult animals)) (UniProt Q9U389)
T1 sequence: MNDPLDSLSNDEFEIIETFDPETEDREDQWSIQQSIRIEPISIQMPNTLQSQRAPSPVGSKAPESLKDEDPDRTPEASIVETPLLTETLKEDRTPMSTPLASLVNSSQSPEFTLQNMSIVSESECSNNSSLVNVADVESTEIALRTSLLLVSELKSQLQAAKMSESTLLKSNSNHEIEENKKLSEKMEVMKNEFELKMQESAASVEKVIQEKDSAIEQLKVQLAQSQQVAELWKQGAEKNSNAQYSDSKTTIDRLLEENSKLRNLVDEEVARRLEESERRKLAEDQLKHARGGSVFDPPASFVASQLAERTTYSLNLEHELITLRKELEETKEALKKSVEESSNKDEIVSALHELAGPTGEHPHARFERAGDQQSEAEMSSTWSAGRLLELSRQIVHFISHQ


Target: T1, endogenously tagged wrmScarlet::ALLO-1 fusion protein (C. elegans (endogenous in young adult animals))
Assay: affinity purification with mass spectrometry

Binder | binding
DIM-1 (disorganized muscle protein 1) (protein, UniProt Q18066 1-640) MASLAPFFKISDSILADESFDDLEINNHFKCTSKDLNEYPRTSTPLPGEITSIYSLPRSYNNQNLCTRSKPTTFISQNQQKGMTEKPKHSEYFLRLMKTRQEMQKKLTAKNGSNKSVQQYLRKLPPSTSKEVTIIPVKMKPDDNSVYISKELSDRTDTKLPKVSTKEVEKFGEQSDDEERHERSHIASDFNQKTPQSTHATSNHRKRIFIGRTGAKQQHVSKKATESELPYNIDVSTSNTTNATEALKLLKRPLLLPSKDPRSSKMPRLDLNQHQFRCKQYIVHSQFTCTQIEKTFKCRVGTSTESEDLDDYYFDAMPDGKAPHFPQQPVARQNDDGSLELECFVDANPTPQVKWYYDNKEVENSGRFSANLANKGSDSYSAILTIKELADADAGAYRCAIVNPHGKGNANFNLKLTGFSSPTFVEKPQISSRDDGQVMVMEFRAKSILEPTFVWQKLVGGGAEEIIANSDRIKAVKKLEAGNVYYSALEIKEPTKDKDAGQFICTVKNESGKLTATFTVKFEVPEGAPSFTRKPQILQQTSAGGEPAICFDIGYSARMNPQVTWISPKSKKMKESSRIKFKTNDEGNGNFTAQLELTNYKAKDSGTYTCNIKNDAGEANVELTLNIEGPLDDYADDSEN | binds
CAR-1 (cytokinesis/apoptosis regulator 1) (protein, UniProt Q9XW17 1-340) MSNQTPYIGSKISLISKLDIRYEGILYTVDTNDSTIALAKVRSFGTEKRPTANPVAARDDVYEYIIFKASDIKDLIVCDTPKMANIGGGLPYDPAIISVSSRSAPASDGAPAASAGSSRAGTPSRNSPLGQIIQNQRPGRGGYQQNFQANRGYNNYRGGFAGGYNNQRGHNNYGVPRVNHREKLKFESDFDFEKANEKFQEVLVDNLEKLNIEDKAEPEVEEKKDAAFYDKKTSFFDNISCESLEKAEGKTGRPDWKKERETNQETFGHNAVRSLNYRRGFGGRGRGGNRGYGGYNNGYQHQHQHRGGYNGGYRQNNGGYRRGGYAPRDNQGNTAAAAEQ | binds

No constants are given. Whether binding was seen depends on the method and setting. In cells and extracts the contact can be indirect. A yes stands for co-enrichment or nearness to the bait. Other partners may have been found. Tags and fused reporters may be left off the sequences shown.
